# Measurements reported in PubChem BioAssay AID1487 (National Center for Advancing Translational Sciences (NCATS), 2009).
# Some of the results follow. The main result of the screen is listed elsewhere. These columns were measured beside it and carry no call. The list favours compounds with an active or inconclusive main result. The note in brackets gives the kind of curve behind each potency; many fits are weak.
# Experiment: qHTS Assay for Modulators of Lamin A Splicing
# Conditions: HeLa LMNA splicing GFP/RFP minigene ratio, 48 h
# Excerpt: NCGC Assay Overview: Hutchinson-Gilford Progeria Syndrome (HGPS) is a pediatric premature aging disease caused by a spontaneous mutation in the lamin A/C (LMNA) gene. The mutation activates a cryptic splice site in the LMNA pre-mRNA which results in production of a pre-lamin A protein that cannot be processed properly. The mutant protein accumulates in the nucleus and negatively affects numerous cellular functions. Correction of the splicing defect in HGPS patient cells using a targeted oligonucleotide (exo11) leads to reversal of the cellular disease phenotypes. To identify small molecule modulators of aberrant LMNA splicing, a homogenous assay was constructed in HeLa cells that used a GFP containing minigene to report on correction of aberrant splicing in lamin A and a RFP (DsRed2) to report on cell viability, uniformity and nonspecific effects on the assay signal. This assay was adapted to laser-scanning microplate cytometry (Acumen, TTP Labtech) where miniaturization of the assay to a 1,536-well plate format was possible. References: Bowen, W. P.; Wylie, P. G. Application of Laser-Scanning Fluorescence Microplate Cytometry in High Content Screening. Assay Drug Dev Technol 2006;4:209-221. Scaffidi P, Misteli T. Reversal of the cellular phenotype in the premature aging disease Hutchinson-Gilford progeria syndrome. Nat.
# NCGC Assay Protocol Summary: Reagents/Controls: Stable clones expressing DsRed2 and lamin A-EGFP were generated by Cell and Molecular Technologies in S3 HeLa cells. HeLa cells were prepared for the assay when they were 70-90% confluent. The cells were counted and resuspended in Opti-MEM I (no phenol red; Gibco), 2% FBS, 1% penicillin/ streptomycin (Gibco) at concentration of 120 cells/uL concentration. The suspension was passed through a Falcon basket filter with pore size 40um (Beckton Dickson). Control titrations: column […] 1536-well plate contained a sixteen point titration (1:2 dilutions) in duplicate of ancitabine (Sigma: A8598) beginning at 40 uM final concentration. Column 2 contained a sixteen point titration (1:2 dilutions) of cycloheximide beginning at 1.4 mM final concentration. Column 3 contained ancitabine at 40 uM and column 4 contained was the vehicle control (0.5% DMSO final concentration). Assay Steps: 5 uL of HeLa cells were plated in Aurora LoBase black clear bottom (cyclic-olefin polymer) 1536-well plates at a final density of 600 cells/well. Controls and library compounds were added with a 1536-well pin array using the Kalypsys pin-tool. The plates were then incubated for 48 hrs in a cell-culture incubator (37 °C; 5% CO2, 98% humidity). Following incubation the plates were read on the Acumen Explorer using the 488 nm laser. Data was collected on objects between 10 and 100 um in size. Cell objects were defined by a 15 um width x 10 um depth filter. The ratio of the total object intensity in PMT1 (500-530 nm emission; GFP) over PMT3 (575-640 nm emission; RFP) was calculated for analysis. Keywords: NIH Roadmap, MLSCN, MLI, MLSMR, qHTS, NCGC, lamin A, Progeria, RNA splicing.
# [1] = measured here: RFP viability control channel
# [2] = measured here: GFP splicing reporter channel
Compound,AC50 [1],AC50 [2]
COc1ccccc1S(=O)(=O)Cc1ccc(C(=O)N2CCN(c3ccccc3)CC2)o1,"3.98 µM [rising, partial curve, poor fit]",
COc1ccc(N2CCN(C(=O)c3cccnc3)CC2)c([N+](=O)[O-])c1,,"0.447 µM [rising, full curve, poor fit]"
O=[N+]([O-])/C(=C\Nc1ccccc1Cl)S(=O)(=O)c1ccccc1,"2 µM [falling, partial curve, poor fit]","1.78 µM [falling, partial curve, poor fit]"
COc1cc(/C=N/NC(=O)c2[nH]nc3c2CCc2ccccc2-3)ccc1O,"35.5 µM [rising, single point]","35.5 µM [rising, single point]"
CCN(C(=S)Nc1cc(S(=O)(=O)N2CCOCC2)ccc1Cl)c1cccc2ccccc12,"5.01 µM [rising, full curve, poor fit]","4.47 µM [rising, full curve, poor fit]"
C=CCc1ccc(OCCOCCOc2cccc3cccnc23)c(OC)c1,"12.6 µM [rising, single point]",
C[N+](C)(C)CCC(=O)c1cccc2ccccc12,"2.51 µM [falling, full curve]","2.24 µM [falling, full curve]"
CCn1c(C)cc2c(c1=O)C(c1ccccc1)C(C(=O)OC)=C(N)O2 (configuration not stated),"35.5 µM [rising, single point]",
CCN(CC)c1ccc(S(=O)(=O)N(CC)CC)cc1NC(=O)c1cccnc1,,"35.5 µM [falling, partial curve, poor fit]"
CC(C)C(C)(C#N)NC(=O)CSc1ncnc2sc(-c3ccccc3)cc12 (configuration not stated),"20 µM [rising, single point]",
O=C(Nc1ccccc1Br)c1cc(S(=O)(=O)NC2CCCCC2)ccc1F,"1.41 µM [falling, full curve]","15.8 µM [falling, partial curve]"
CCOc1ccccc1NC(=O)C(Sc1ccccc1)c1ccccc1 (configuration not stated),"15.8 µM [rising, single point]","7.08 µM [rising, single point]"
C=CCc1cccc2cc(-c3nc4ccc(C(=O)O)cc4[nH]3)c(=O)oc12,,"0.794 µM [rising, partial curve]"
COc1ccc2cc(CN(C(=O)Nc3ccccc3OC)C3CCCC3)c(=O)[nH]c2c1,"25.1 µM [rising, single point]",
COc1ccc(C)cc1Nc1cc(C)nc2nc(C)nn12,"1.26 µM [rising, partial curve]",
Cc1ccc(C(C(=O)NC2CCCC2)N(C(=O)Cc2cccs2)c2ccc(C)c(C)c2)o1 (configuration not stated),"31.6 µM [rising, single point]",
Cc1c(C(=O)Nc2nc3ccccc3[nH]2)oc2ccccc12,"11.2 µM [rising, single point]",
Brc1ccc(Nc2c3c(nc4ncnn24)CCC3)cc1,"12.6 µM [rising, partial curve, poor fit]",
COc1ccc(-c2nc(CN3CCCCC3c3nccn3C)c(C)o2)c(C)c1C (configuration not stated),"8.91 µM [rising, single point]",
O=C(Nc1cccc2ccccc12)c1ccc([N+](=O)[O-])s1,"35.5 µM [falling, single point]","17.8 µM [falling, single point]"

# Among those listed so far, 7 have an aryl methoxy group:
Compound,AC50 [1],AC50 [2]
COc1ccccc1S(=O)(=O)Cc1ccc(C(=O)N2CCN(c3ccccc3)CC2)o1,"3.98 µM [rising, partial curve, poor fit]",
COc1ccc(N2CCN(C(=O)c3cccnc3)CC2)c([N+](=O)[O-])c1,,"0.447 µM [rising, full curve, poor fit]"
COc1cc(/C=N/NC(=O)c2[nH]nc3c2CCc2ccccc2-3)ccc1O,"35.5 µM [rising, single point]","35.5 µM [rising, single point]"
C=CCc1ccc(OCCOCCOc2cccc3cccnc23)c(OC)c1,"12.6 µM [rising, single point]",
COc1ccc2cc(CN(C(=O)Nc3ccccc3OC)C3CCCC3)c(=O)[nH]c2c1,"25.1 µM [rising, single point]",
COc1ccc(C)cc1Nc1cc(C)nc2nc(C)nn12,"1.26 µM [rising, partial curve]",
COc1ccc(-c2nc(CN3CCCCC3c3nccn3C)c(C)o2)c(C)c1C (configuration not stated),"8.91 µM [rising, single point]",

# Entries of single compounds from above:
# CCN(C(=S)Nc1cc(S(=O)(=O)N2CCOCC2)ccc1Cl)c1cccc2ccccc12 as listed: AC50 [1]: 5.01 µM [rising, full curve, poor fit]; AC50 [2]: 4.47 µM [rising, full curve, poor fit]
# O=[N+]([O-])/C(=C\Nc1ccccc1Cl)S(=O)(=O)c1ccccc1 as listed: AC50 [1]: 2 µM [falling, partial curve, poor fit]; AC50 [2]: 1.78 µM [falling, partial curve, poor fit]

# The list goes on:

Compound,AC50 [1],AC50 [2]
Cc1ccc(-c2noc(CN(C(=O)CCCCCN3C(=O)c4ccccc4C3=O)C(C)C)n2)cc1,"22.4 µM [rising, single point]","12.6 µM [rising, partial curve]"
Cc1ccc(S(=O)(=O)Nc2ccccc2CNc2ncc(Br)cc2Br)cc1,,"35.5 µM [rising, single point]"
CCOc1ccc(CNC(=O)CN2N=C(c3ccccc3)CCC2=O)cc1OC,,"3.98 µM [rising, partial curve, poor fit]"
Cc1cccc(N2CCN(CC(=O)Nc3nccs3)CC2)c1C,"12.6 µM [rising, single point]",
O=C(NC(NC(=S)Nc1ccccc1Cl)C(Cl)(Cl)Cl)c1cccc(Cl)c1 (configuration not stated),,"35.5 µM [falling, single point]"
O=[N+]([O-])c1ccc(NC(=S)N2CCN(c3ccccc3)CC2)cc1,"31.6 µM [rising, single point]",
CCc1ccc(NC(=O)C2CCN(S(=O)(=O)c3cccc(-c4noc(C)n4)c3)CC2)cc1,"2.82 µM [falling, full curve, poor fit]",
Cc1ccc(Cn2c(CNC(=O)c3ccc(Cl)c([N+](=O)[O-])c3)nc3cccnc32)cc1,"3.98 µM [falling, full curve, poor fit]","3.98 µM [falling, full curve, poor fit]"
CCCCOC(=O)C[N+](C)(C)CCOC1CC2CCC1(C)C2(C)C (configuration not stated),"22.4 µM [rising, single point]",
CCOc1ccc(S(=O)(=O)Nc2cc(Cl)ccc2O)cc1,,"35.5 µM [falling, single point]"
CCOc1ccc(C2C(C#N)=C(C)NC3=C2C(=O)c2ccccc23)cc1 (configuration not stated),"35.5 µM [rising, single point]",
O=C(Nc1nc(-c2ccco2)c(-c2ccco2)s1)C1CCC1,"12.6 µM [rising, partial curve, poor fit]","31.6 µM [rising, single point]"
CCN(CC)C(=O)NC1CCCCCCC1,,"0.1 µM [rising, full curve, poor fit]"
Cc1ccc2cc(CN(CCCO)S(=O)(=O)c3cccc4nsnc34)c(=O)[nH]c2c1C,"35.5 µM [rising, single point]",
COc1ccc(-c2c(C)[nH]n3c(=O)c(Cc4ccccc4)c(C)nc23)cc1OC,"35.5 µM [rising, single point]",
COc1cccc([C@@H]2Oc3ccc(Br)cc3C(=O)[C@H]2OC(=O)NC2CCCC2)c1,"25.1 µM [rising, partial curve]",
CC(C)OC(=O)NCCOC(=O)Nc1ccc(Cl)c(Cl)c1,"35.5 µM [rising, single point]","14.1 µM [rising, single point]"
CCc1cc(=O)[nH]c(SCc2nc(-c3cccc(Cl)c3)no2)n1,,"35.5 µM [falling, single point]"
O=C(COCc1cc(-c2cccs2)on1)NCc1ccc(F)cc1,"0.0447 µM [falling, full curve, poor fit]",
O=C(Nc1ccc(Cl)cc1)c1ccc(-n2cnnc2)cc1,"0.708 µM [falling, single point]",

Compound,AC50 [1],AC50 [2]
Cc1ccc(Cl)cc1N1CCN(S(=O)(=O)c2ccc3c(c2)C(C(C)C)C(=O)N3)CC1 (configuration not stated),,"6.31 µM [rising, partial curve, poor fit]"
C=CCN1C2CCCC1CC(NC(=S)Nc1ccc(Cl)cc1)C2 (configuration not stated),,"0.178 µM [falling, full curve, poor fit]"
CCOc1ccc(NC(=O)CS(=O)(=O)c2cn(CC)c3ccccc23)cc1,,"3.55 µM [falling, single point]"
CCn1c(=O)c(C(=O)Nc2nc3ccccc3[nH]2)c(O)c2ccccc21,"4.47 µM [rising, single point]",
CC(=O)Nc1ccc(OCC(O)Cn2c(C(C)C)nc3ccccc32)cc1 (configuration not stated),"0.0282 µM [falling, full curve, poor fit]",
O=C(c1ccc(Cl)cc1)C1CCN(C(=O)NC2CCCCC2)CC1,"14.1 µM [rising, partial curve, poor fit]",
COc1cc(C(=O)Oc2c(CN3CCOCC3)cc(Cl)c3cccnc23)cc(OC)c1OC,"8.91 µM [rising, partial curve, poor fit]",
CC1Oc2ccccc2N(CC(=O)NCC2CCCO2)C1=O (configuration not stated),"0.00447 µM [rising, full curve, poor fit]",
COc1ccc(NS(=O)(=O)c2ccc3nc(COc4ccc(Cl)c(C)c4)[nH]c3c2)cc1,"35.5 µM [rising, single point]",
N#CC(c1ccc(Cl)cc1)c1ccc2c(C(F)(F)F)cc(C(F)(F)F)nc2n1 (configuration not stated),"3.16 µM [rising, single point]",
COc1ccc(C2C3CCCCC3(O)CCN2C(=O)c2cccs2)cc1 (configuration not stated),,"0.316 µM [rising, full curve]"
Cc1c(Cl)cccc1-c1ccc(/C=N/n2cnnc2)o1,"10 µM [falling, partial curve]",
COc1cccc(Nc2nc3ccccc3nc2NS(=O)(=O)c2cccs2)c1,"25.1 µM [falling, single point]","17.8 µM [falling, partial curve]"
CCc1cc(=O)oc2c(C)c(OCC(=O)N3CCCc4ccccc43)ccc12,"35.5 µM [rising, single point]",
COc1cccc(CNC(=O)c2cc3c(=O)n(Cc4cccnc4)ccc3nc2C)c1,"35.5 µM [rising, single point]",
CCc1ccccc1Nc1ncnc2c1cnn2-c1ccc(C)cc1C,,"2.82 µM [falling, partial curve]"
COc1ccc(C(=O)Nc2nnc(S(=O)(=O)N(C)c3ccc(C)cc3)s2)cc1,"15.8 µM [rising, partial curve]","17.8 µM [rising, partial curve]"
Fc1ccc2[nH]c3c(N4CCN(c5ccccc5)CC4)ncnc3c2c1,"2.82 µM [rising, full curve]","3.16 µM [rising, full curve]"
